{"source": "patent US20230129723A1", "about": "“EN[…] OF 3,4-METHYLENEDIOXYMETHAMPHETAMINE AND RELATED METABOLITES AND USES THEREOF” (ATAI Life Sciences AG, priority 2021, published 2023)", "key": {"[1]": {"system": "rat embryonic cortical neuron cultures", "assay": "Neurite outgrowth in primary rat embryonic cortical neuron cultures, single test articles (Example 1)", "format": "cell-based", "details": "250 nM, 3 days treatment, compared to 0.1% sterile water vehicle control, t test p<0.05", "text": "Primary rat cortical neuron experimental methods: Female Wistar rats of 17 days gestation were killed by cervical dislocation and the fetuses (typically 6 to 8 in number) were removed from the uterus. Fetal brains were placed in ice-cold medium of Leibovitz (L15, Gibco, France). Cortex was dissected and meninges were carefully removed. The cortical neurons were dissociated by trypsinization (trypsin-EDTA, Gibco) in the presence of DNAse I (Roche, France). The reaction was stopped by addition of Dulbecco's Modified Eagle Medium (DMEM; Gibco) with 10% of fetal bovine serum (FBS; Gibco). The suspension was triturated with a 10-ml pipette and a 21-gauge needle syringe and centrifuged. The pellet of dissociated cells was resuspended in a medium consisting of Neurobasal (Gibco) supplemented with 2% B27 supplement (Gibco), 0.5 mM L-Glutamine (Gibco), and an antibiotic-antimycotic mixture. Viable cells were counted in a Neubauer cytometer and cells were seeded in 96-well plates (Costar) precoated with poly-L-lysine at 10,000 cells/well.\nStock solutions were prepared in sterile water at 10 mM, and stored at −20° C. until use. Further dilution will be performed in culture in the medium on the day of the treatment. 0.1% Sterile water will be present in all tested conditions. […]\nCells were successively permeabilized for 30 minutes using 0.1% triton, saturated with PBS containing 3% bovine serum albumin (BSA) and incubated for 1 hour with anti-beta III tubulin antibody (T5168, Sigma). […] After rinsing the cells with PBS, the plate was imaged and neurite networks were examined and analyzed using a High-Content Screening platform (CellInsight CX5, Thermo Scientific) with integrated Photometrics high-resolution fluorescent camera, Olympus objective (10×) and HCS Studio Cell Analysis Software.\nApproximately 2,000 neurons per well were analyzed using a validated cortex neuron outgrowth algorithm that utilizes parameters optimized for analysis of embryonic rat cortical neuron cultures. […]"}, "[2]": {"system": "rat embryonic cortical neuron cultures", "assay": "Neurite outgrowth in primary rat embryonic cortical neuron cultures, racemic and non-racemic R(−)/S(+)-MDMA mixtures (Example 2)", "format": "cell-based", "details": "positive control 250 nM, compared to vehicle control"}, "[3]": {"details": "all of the conditions tested, t test p<0.05"}}, "data": [{"compound": "COc1cc2c(cc1OC)C(=O)C(CC1CCN(Cc3ccccc3)CC1)C2", "note": "(stereo not shown) [Donepezil, reference compound]", "values": [{"measurement": "neurite number", "setting": "[1]", "value": "significantly increasing"}, {"measurement": "neurite total length (μm)", "setting": "[1]", "value": "significantly increasing"}, {"measurement": "total number of branchpoints", "setting": "[1]", "value": "significantly increasing"}, {"measurement": "neurite number", "setting": "[2]; 10 uM R(−), variable S(+) conditions, t test p<0.05", "value": "significantly increasing"}, {"measurement": "neurite total length (um)", "setting": "[2]; [3]", "value": "significantly increasing"}, {"measurement": "total number of branchpoints", "setting": "[2]; [3]", "value": "significantly increasing"}, {"measurement": "average number of neurites", "setting": "[2]; one sample: 10 uM S(+), variable R(−) treatment conditions", "value": "did not reach statistical significance"}]}]}
